doi:10.1101/2022.06.06.495046
These are yes or no findings as the source states them, for the method shown. Binding seen in cells or lysates may run through a third protein. These calls come from enrichment with a bait or labelling near it, and not all partners need be listed.

By UniProt entry, the sequences of proteins in these tests, tags left out.
UniProt P49721: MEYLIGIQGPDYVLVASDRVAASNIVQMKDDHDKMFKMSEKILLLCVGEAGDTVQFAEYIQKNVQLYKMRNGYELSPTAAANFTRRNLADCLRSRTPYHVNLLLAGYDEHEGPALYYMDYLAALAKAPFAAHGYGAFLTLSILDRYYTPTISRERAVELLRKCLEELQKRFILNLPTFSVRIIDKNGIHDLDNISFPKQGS
UniProt Q5VYK3: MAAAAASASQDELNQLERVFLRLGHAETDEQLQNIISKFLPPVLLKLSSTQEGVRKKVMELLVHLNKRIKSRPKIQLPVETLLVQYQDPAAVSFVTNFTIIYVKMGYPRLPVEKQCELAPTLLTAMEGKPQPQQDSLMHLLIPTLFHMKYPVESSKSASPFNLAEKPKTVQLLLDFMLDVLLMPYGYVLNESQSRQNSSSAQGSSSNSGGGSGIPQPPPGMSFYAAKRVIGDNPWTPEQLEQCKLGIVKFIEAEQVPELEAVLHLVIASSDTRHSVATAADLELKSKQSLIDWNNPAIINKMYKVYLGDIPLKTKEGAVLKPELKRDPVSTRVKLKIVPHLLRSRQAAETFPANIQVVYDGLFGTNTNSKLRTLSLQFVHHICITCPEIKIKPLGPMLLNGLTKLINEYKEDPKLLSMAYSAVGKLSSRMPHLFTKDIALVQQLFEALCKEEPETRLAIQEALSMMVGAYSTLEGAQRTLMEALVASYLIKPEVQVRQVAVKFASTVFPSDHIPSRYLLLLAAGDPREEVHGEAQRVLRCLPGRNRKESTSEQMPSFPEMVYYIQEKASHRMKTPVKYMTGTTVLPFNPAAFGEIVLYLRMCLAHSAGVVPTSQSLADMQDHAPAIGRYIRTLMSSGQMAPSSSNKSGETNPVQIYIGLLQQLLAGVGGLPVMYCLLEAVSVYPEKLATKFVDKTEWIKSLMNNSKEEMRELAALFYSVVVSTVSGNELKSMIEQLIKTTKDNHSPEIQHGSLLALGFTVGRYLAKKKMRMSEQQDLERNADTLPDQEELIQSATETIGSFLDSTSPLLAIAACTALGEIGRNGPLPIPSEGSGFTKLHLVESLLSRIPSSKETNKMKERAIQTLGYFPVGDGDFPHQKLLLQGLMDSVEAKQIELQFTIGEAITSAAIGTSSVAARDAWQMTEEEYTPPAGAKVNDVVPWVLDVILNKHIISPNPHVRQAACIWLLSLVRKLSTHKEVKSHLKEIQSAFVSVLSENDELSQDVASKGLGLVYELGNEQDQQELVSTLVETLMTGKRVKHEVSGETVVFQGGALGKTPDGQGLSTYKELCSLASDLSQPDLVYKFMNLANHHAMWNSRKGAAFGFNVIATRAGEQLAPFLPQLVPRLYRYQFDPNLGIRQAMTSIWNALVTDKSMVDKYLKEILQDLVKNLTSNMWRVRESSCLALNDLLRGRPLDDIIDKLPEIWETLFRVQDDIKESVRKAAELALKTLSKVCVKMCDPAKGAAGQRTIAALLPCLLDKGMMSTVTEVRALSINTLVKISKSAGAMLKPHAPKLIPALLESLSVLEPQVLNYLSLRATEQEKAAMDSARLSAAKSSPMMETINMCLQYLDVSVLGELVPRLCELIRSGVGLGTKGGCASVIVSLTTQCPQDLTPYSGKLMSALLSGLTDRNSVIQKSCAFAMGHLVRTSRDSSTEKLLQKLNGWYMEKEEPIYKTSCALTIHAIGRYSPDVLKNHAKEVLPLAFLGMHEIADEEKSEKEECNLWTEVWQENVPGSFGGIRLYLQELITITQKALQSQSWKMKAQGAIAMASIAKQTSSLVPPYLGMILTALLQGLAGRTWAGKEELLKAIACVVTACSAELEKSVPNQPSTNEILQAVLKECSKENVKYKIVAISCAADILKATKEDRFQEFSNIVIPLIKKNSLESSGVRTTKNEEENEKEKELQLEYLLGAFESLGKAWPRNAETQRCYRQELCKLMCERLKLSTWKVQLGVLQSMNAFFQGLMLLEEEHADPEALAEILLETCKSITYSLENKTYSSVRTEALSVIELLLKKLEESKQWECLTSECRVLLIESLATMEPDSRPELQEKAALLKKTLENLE
UniProt P54725: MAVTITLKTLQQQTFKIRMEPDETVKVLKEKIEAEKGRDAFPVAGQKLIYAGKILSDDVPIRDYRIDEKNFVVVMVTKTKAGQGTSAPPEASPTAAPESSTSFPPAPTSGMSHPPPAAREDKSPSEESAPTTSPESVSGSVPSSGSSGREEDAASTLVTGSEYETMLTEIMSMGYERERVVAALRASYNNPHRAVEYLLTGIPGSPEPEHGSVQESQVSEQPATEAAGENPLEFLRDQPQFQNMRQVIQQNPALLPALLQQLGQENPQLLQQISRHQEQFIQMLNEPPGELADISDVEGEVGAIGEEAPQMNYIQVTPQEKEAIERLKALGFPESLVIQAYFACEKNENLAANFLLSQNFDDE
UniProt Q05086: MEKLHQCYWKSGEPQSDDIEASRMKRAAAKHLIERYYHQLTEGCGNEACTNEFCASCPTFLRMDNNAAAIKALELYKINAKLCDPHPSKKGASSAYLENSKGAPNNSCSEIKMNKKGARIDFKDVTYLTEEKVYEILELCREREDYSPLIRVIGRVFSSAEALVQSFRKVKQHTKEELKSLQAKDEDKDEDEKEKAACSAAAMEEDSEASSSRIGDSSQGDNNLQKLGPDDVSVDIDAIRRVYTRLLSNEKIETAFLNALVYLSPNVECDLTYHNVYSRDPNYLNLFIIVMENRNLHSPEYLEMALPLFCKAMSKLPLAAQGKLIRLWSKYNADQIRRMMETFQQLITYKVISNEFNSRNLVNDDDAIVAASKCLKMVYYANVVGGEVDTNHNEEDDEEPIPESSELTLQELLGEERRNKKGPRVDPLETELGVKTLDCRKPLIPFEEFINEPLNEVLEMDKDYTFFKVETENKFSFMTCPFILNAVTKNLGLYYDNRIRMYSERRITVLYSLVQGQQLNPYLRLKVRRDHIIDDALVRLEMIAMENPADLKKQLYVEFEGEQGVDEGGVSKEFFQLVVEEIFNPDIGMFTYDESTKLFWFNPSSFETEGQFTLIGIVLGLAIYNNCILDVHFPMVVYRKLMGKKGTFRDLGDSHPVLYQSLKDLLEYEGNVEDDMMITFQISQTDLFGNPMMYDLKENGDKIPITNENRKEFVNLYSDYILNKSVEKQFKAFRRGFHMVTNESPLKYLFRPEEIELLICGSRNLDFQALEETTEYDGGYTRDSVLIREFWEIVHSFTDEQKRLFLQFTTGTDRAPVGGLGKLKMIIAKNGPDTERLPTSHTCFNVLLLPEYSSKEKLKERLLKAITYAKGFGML
UniProt Q15386: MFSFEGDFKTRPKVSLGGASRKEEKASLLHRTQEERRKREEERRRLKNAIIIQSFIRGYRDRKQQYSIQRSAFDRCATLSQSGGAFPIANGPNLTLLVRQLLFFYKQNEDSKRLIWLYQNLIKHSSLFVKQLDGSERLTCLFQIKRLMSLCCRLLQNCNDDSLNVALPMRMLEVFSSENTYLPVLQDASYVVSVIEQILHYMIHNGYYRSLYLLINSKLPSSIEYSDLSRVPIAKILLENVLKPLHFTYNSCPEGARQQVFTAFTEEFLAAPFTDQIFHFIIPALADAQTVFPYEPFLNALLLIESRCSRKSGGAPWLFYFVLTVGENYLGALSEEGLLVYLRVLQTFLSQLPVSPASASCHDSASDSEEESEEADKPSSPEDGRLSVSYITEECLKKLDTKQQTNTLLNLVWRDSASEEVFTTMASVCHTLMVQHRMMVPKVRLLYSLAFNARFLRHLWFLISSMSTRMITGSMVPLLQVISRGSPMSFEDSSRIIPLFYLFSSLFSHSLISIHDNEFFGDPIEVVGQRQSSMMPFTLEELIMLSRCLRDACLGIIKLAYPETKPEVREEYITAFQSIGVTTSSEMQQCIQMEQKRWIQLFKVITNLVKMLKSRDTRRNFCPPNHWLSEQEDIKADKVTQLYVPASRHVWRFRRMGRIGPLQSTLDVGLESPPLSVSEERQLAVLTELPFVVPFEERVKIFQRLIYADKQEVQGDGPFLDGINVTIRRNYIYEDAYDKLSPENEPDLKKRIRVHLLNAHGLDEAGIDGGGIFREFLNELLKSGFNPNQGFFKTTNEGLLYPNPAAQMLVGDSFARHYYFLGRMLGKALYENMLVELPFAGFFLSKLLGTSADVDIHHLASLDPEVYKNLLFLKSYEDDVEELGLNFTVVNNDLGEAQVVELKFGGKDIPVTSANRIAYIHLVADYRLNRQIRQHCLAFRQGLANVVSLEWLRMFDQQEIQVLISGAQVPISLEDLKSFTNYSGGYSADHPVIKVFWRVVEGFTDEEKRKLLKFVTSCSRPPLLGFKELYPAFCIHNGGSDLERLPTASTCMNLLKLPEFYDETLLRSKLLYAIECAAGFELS
UniProt Q9UHD9: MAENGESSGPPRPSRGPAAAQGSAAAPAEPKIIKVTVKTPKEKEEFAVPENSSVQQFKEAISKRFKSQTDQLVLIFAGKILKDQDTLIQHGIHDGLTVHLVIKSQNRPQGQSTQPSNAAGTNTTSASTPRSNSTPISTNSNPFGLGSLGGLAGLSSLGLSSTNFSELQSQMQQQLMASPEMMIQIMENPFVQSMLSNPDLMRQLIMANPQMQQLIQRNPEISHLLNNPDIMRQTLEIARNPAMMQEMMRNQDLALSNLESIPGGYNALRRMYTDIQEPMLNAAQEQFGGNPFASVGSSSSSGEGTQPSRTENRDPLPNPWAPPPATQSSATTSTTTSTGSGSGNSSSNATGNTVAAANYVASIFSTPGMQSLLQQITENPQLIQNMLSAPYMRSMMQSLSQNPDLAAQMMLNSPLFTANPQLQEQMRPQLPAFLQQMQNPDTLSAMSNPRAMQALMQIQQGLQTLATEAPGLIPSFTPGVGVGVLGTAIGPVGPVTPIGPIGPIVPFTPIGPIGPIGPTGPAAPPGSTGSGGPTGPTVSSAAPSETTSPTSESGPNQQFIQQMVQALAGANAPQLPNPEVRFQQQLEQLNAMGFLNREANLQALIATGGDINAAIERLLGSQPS

Target: PSMB2-HB (20S subunit PSMB2 tagged with TEV protease-cleavable hexahistidine-biotin) (human) (UniProt P49721)
Experiment: affinity purification with mass spectrometry

binding, binds:
Ecm29 proteasome adaptor and scaffold (ECPAS) (from UniProt Q5VYK3 1-1845)
RAD23A (from UniProt P54725 1-363)
UBE3A (from UniProt Q05086 1-875) (enzyme)
UBE3C (from UniProt Q15386 1-1083) (enzyme)
UBQLN2 (from UniProt Q9UHD9 1-624)
VCP/p97 (from UniProt P55072 1-806)
